Patent publication US20200297795A1
No constants are given. Whether binding was seen depends on the method and setting. Some results given as binding are weak or reduced against the parent protein; the word gives no strength.

Chains of the proteins cited; added tags and fusions are not shown. Residues count along the entry.
UniProt P27512, residues 20-289: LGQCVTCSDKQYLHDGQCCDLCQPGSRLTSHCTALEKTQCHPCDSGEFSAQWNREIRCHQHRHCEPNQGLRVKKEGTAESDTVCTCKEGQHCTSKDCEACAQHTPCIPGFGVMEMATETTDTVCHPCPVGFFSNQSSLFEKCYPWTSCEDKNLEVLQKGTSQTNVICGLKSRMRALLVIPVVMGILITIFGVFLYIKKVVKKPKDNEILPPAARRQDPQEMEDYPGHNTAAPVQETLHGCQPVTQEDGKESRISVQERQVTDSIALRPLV

Tests used:
[1] = biological target: mouse CD40 on T cells (Th40 cells), B cells and PBMC of NOD or C57BL/6 mice (mouse) (UniProt P27512); experiment: flow cytometry, FITC-labeled peptide on NOD mouse lymphocytes
[2] = biological target: mouse CD40 on T cells (Th40 cells), B cells and PBMC of NOD or C57BL/6 mice (mouse) (UniProt P27512); experiment: flow cytometry, FITC-conjugated KGYY6
[3] = biological target: mouse CD40 on T cells (Th40 cells), B cells and PBMC of NOD or C57BL/6 mice (mouse) (UniProt P27512); experiment: flow cytometry, FITC-conjugated KGYY6 on PBMC
[4] = biological target: mouse CD40 on T cells (Th40 cells), B cells and PBMC of NOD or C57BL/6 mice (mouse) (UniProt P27512); experiment: flow cytometry, FITC-conjugated KGYY6 on cells of EAE-induced C57BL/6 mice
[5] = biological target: mouse CD40 on T cells (Th40 cells), B cells and PBMC of NOD or C57BL/6 mice (mouse) (UniProt P27512); experiment: flow cytometry, FITC-conjugated KGYY6 on PBMC, dLN and splenic lymphocytes
[6] = biological target: mouse CD40 on T cells (Th40 cells), B cells and PBMC of NOD or C57BL/6 mice (mouse) (UniProt P27512); experiment: flow cytometry, PBMC of C57BL/6 mice (non-induced, 6 and 13 days post EAE induction) stained with FITC-conjugated KGYY6, compared with B6.CD40KO PBMC

Measured: binding

VLQWAKKGYYTMKSN (FITC-labeled (site of the label not stated)) [FITC-labeled 15-mer peptide from mouse CD154]
binds: [1]

AKKGYY (FITC-conjugated (site of the label not stated)) [FITC-conjugated KGYY6 peptide]
not listed: [1]
binds: all other assays above
